These results are taken from PMC6880622.

These are yes or no findings as the source states them, for the method shown. Binding seen in cells or lysates may run through a third protein. Binding can be weak; no strength is given.

Assay [1] has as its target T1, Cysteine-rich protein 61 (CCN1/Cyr61) (human (endogenous in MDA-MB-231)) (UniProt O00622).
T1 sequence: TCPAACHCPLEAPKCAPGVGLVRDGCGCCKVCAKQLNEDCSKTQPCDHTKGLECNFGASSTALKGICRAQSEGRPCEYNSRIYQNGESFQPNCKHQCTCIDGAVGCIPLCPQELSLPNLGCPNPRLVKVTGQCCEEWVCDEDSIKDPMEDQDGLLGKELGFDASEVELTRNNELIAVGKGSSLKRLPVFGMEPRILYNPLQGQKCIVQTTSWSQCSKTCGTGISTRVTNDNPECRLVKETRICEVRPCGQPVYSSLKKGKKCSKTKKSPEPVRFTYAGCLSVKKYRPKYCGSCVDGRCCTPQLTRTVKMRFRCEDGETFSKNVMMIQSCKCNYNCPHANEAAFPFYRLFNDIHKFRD
In words: co-IP; endogenous proteins of MDA-MB-231 cell lysate (IP Lysis/Wash Buffer: 0.025 M Tris, 0.15 M NaCl, 0.001 M EDTA, 1% NP-40, 5% glycerol, pH 7.4); antibody coupled to aminolink plus coupling resin in spin columns (anti-Cyr61; by the legend also anti-integrin αv and anti-integrin β1); western blot of the eluates; mouse IgG as negative control; co-culture with HPMEC said to promote and metapristone to inhibit the complex.

Assay [2] addresses integrin αvβ1 (human (endogenous in MDA-MB-231)). The description is as above.

Consider “integrin αvβ1 (human (endogenous in MDA-MB-231)) (complex)”, for which the binding entry in assay [1] is given as “binds”.

B1: Cysteine-rich protein 61 (CCN1/Cyr61) (protein, UniProt O00622 25-381)
chain: T1 sequence
For B1, the binding result in assay [2] is reported as “binds”.
